Results published in patent publication US8933245B2, “Preservation of ergothioneine” (ELC Management LLC, priority 2009, dated 2015).

Legend:
[1] = Preventing trimethylamine odor by addition of compounds before heating ergothioneine with sodium hydroxide; type: physicochemical; details: scale 0 (no odor) to 3 (strong fishy trimethylamine odor), three testers averaged
Method: Samples were prepared in glass tubes with screw caps with about 0.05% (w/v) ergothioneine in water, a test sample, at the indicated concentration, and 0.1N NaOH (except for the first tube, in which NaOH was omitted as a negative control). The pH of each sample was determined by litmus paper, and then the tubes capped and placed in a boiling water bath for 10 minutes. The tubes were then cooled to room temperature, and then each one was uncapped and smelled by three testers, each of whom scored the odor. The scores were converted to a scale of 0 (no odor) to 3 (strong fishy trimethylamine odor) and then averaged.

[2] = Formation of fishy amine odor by boiling ergothioneine with sodium hydroxide or other components; type: physicochemical
Method: This became the assay system used to test agents and procedures for reduction or prevention of the odor.
Four samples of a 5 ml ergothioneine solution at 0.1% (w/v) were prepared in glass test tubes with screw caps. To the first was added 5 ml of water, to the second 5 ml of 0.2% (w/v) sodium metabisulfite, to the third 4 ml of water and 1 ml of 1N sodium hydroxide, and to the fourth 5 ml of 0.2% (w/v) citric acid. […] The samples were boiled for 10 minutes and each one was smelled.
This allowed the testing of methods to inhibit the formation of the odor and to suppress the odor after formation.

[3] = test sample 0.01% added before boiling
[4] = test sample 0.05% added before boiling
[5] = test sample 0.2% added before boiling
[6] = 5 ml 0.1% ergothioneine plus 5 ml addition (0.2% sodium metabisulfite; 4 ml water + 1 ml 1N sodium hydroxide; 0.2% citric acid), boiled 10 minutes

SMILES | Odor ([1]; test sample 0.0001% added before boiling) | Odor [1, 3] | Odor [1, 4] | Odor [1, 5] | odor after boiling [2, 6] | odor after boiling ([2]; 2 mM (0.046%) ergothioneine boiled with 0.1 N NaOH (pH 11.5) for 10 minutes)
Cl [Hydrochloric acid] | 0.67 | 0.67 | – | – | – | –
O=C1O[C@H]([C@@H](O)CO)C(O)=C1O [ascorbic acid] | – | 1.33 | 1.67 | 0.00 | – | –
OB(O)O [boric acid] | – | 1.33 | 1.33 | 0.00 | – | –
O=C(O)CC(O)(CC(=O)O)C(=O)O [citric acid] | – | 2.33 | 2.00 | 0.00 | None of the other tubes had this odor | –
C[N+](C)(C)[C@@H](Cc1c[nH]c(=S)[nH]1)C(=O)[O-] [ergothioneine] | – | – | – | – | – | fishy, amine odor
O=P(O)(O)O [phosphoric acid] | – | 1.33 | 0.33 | 0.00 | – | –
[Na+].[OH-] [sodium hydroxide] | – | – | – | – | had the fishy, amine odor | –
O=S([O-])S(=O)(=O)[O-].[Na+].[Na+] [sodium metabisulfite] | – | 1.67 | 1.00 | 0.00 | None of the other tubes had this odor | –
